Among all 52,000 sequences or so, about 210 (0.4%) were called active.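 How the source made its calls: active means gene whose silencing raises cell survival under the drug, median off-target-corrected z-score across its silencing RNAs 2 or more; inactive means the rest.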 Some of the results follow.

A short description of this test: Resistance to Poly (ADP-Ribose) Polymerase inhibitor: Gene Identification via Genome-wide siRNA Screen. The following applies: mouse BRCA2 R2336H ES cells, olaparib, CellTiter-Glo viability; hits give high values. In a few lines: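 Genome-wide siRNA screen (3 siRNAs/gene, 20 nM) in mouse ES cells carrying hypomorphic BRCA2 R2336H; olaparib 500 nM added 48 h post-transfection, CellTiter-Glo viability 72 h later. Normalized to plate-median negative control; MAD z-scores, gene median, seed-adjusted.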
(ATP-based viability assays read luminescence as a measure of living cells.)
With “CCUGUUGGACCUUAUUCCCTT against 1100001H23Rik”, the z-score is inactive: 0.623. Take GGAAACUUUUGGGAGAAAUTT against Itpr2: the z-score was inactive: 1.5. For GGAAGGUGUCUGUAAUAUATT against Slamf9, the z-score was inactive: -0.311. Take GCGACAUCUACAAGUUCAUTT against Foxb2: the z-score was inactive: -0.362.

As to CCCAUUUAGAAUUACGGCATT against Ppp2r2d, the z-score was inactive: 0.582. As for “CCUAAGUAGUGUUUGAACUTT against B530045E10Rik”, the z-score was inactive: -0.488. Turning to GGUACCAACAAGAUGACUGTT against Iigp2, the z-score was inactive: 1.68.

With CGUAGAAGUUGAUGAGUCATT against Numb, the z-score is inactive: -0.766.

Consider GGAUAAUCAGGAAGGUACUTT against Blmh, for which the z-score was inactive: -0.285. As for “GGACUGUCAUCUUCCUCAGTT against 4933401N24Rik”, the z-score is inactive: -1.72. The result for GGAGCUGGCUGACUUCAUUTT against Fcho1 reads inactive: -2.19; that for “GGAGCCUCAUGAAAAAUGCTT against 9930014A18Rik”, inactive: -0.404. In the case of GCUGAUGGCAGAGGAAACATT against Olfr213, the z-score is inactive: -0.801. For GGCGGAUAUCAAUACGAAATT against Rpl14, the z-score is inactive: -2.98. In the case of GGUUUUCCUAAAGUCAACATT against Bfar, the z-score was inactive: 0.203.

On to CCAAUGCAAGUGCUACAGUTT against Zfp277, for which the z-score is inactive: 0.967. As to GCCUCCAACUGAACAAAUUTT against Tnfrsf14, the z-score was inactive: -2.44. On to CCCUAAAGCUUUAUAGUGCTT against Dub1a, for which the z-score was inactive: 0.912. For the sequence “GCCAUCAACGUAUCUUACUTT against 4930548H24Rik”, the z-score was inactive: 2.17. Turning to GGAGAUUCUGUAGGUUAUUTT against Lrat, the z-score was inactive: -0.278. As to “CCGAAAUAAAGGAGUUGAUTT against 1110059F07Rik”, the z-score was inactive: 0.382.

For GGCAAAAUUAGCAUCAAAGTT against Slc22a3, the z-score was inactive: 0.606. Under GGAUUCUAGGGUUGACAUUTT against Kb36 stands inactive: -0.537; under GGUGGUAAUAGACAAACACTT against Dullard, inactive: 2.64. With CCACUUGGAUGCAGUGAAGTT against Ehmt1, the z-score was inactive: -1.5. On to GGUCAAGAAAAAGUUUCAGTT against Spag7, for which the z-score was inactive: 1.63. The result for GCGCCUUAACCAAGAAGUUTT against BC038311 reads inactive: -1; that for GUCCCAAUGCUCAAAAAAATT against Sf4, inactive: 0.467. Turning to GGAAGAUGAAGAGUCAGAGTT against BC035291, the z-score is inactive: 1.38. For the sequence “GGCAAUCUUAUACUUAUGCTT against 1810037K07Rik”, the z-score was inactive: -0.95. Consider GGGUGUGUUCUUAUCUCAUTT against Olfr921, for which the z-score was inactive: 0.0249. For GGUAUAUGGUGGGAACUUUTT against Bnipl, the z-score was inactive: 0.451. For the sequence “GGAGAUGCUCGCUUUUUACTT against D730039F16Rik”, the z-score was inactive: 0.481. Under GAGAGUCGCGCGCUUUUAATT against Nxph4 stands inactive: -0.537; under CCUACACCUUCAGUUUGAUTT against MGC118154, inactive: 0.0942; under GCAAUAAAGAGUUCUGGCUTT against Cklfsf2a, inactive: -0.0464. Under “GGCCUUAAGGUCCAUUAUCTT against 5730403M16Rik” stands inactive: 1.57. For “GGAUCAAAUGAAGAGGGAATT against C230094B15Rik”, the z-score was inactive: -0.666. As for GGAACCCUAUAUCUAGCAATT against Olfr114, the z-score was inactive: 0.483. Take GCCUAUCUAAUAUACAACGTT against Dnase2b: the z-score is inactive: 0.435. The result for “GCUGAACGAGCAAUUGAGATT against 4932702K14Rik” reads inactive: 1.73; that for GGAAAACGGACUAUUGUCCTT against Phf13, inactive: 0.975. The result for CCUUUCCAAACACCUAUAATT against Sox6 reads inactive: 0.421; that for GGAUUUACAUCCAUUGUUGTT against Otoa, inactive: 0.958; that for GCUCCAUGAAACCCACUCUTT against BC065120, inactive: -1.77. The result for GCGCACACCCUACUUGAUUTT against Pcdh20 reads inactive: -0.363; that for “CGCAUGAUGUGGGUUCUGUTT against 5730578N08Rik”, inactive: 0.00907. Turning to GGCAGGUAAUUUUGAAUGUTT against Lemd2, the z-score was inactive: -0.291. Turning to GCGAGCUGAACAAAUGGUCTT against Cyp24a1, the z-score is inactive: 0.919. Under CGGGCAUUUACGAAUCAAGTT against Lmln stands inactive: 1.5; under GGUAAACUACGAAGAGUUUTT against Calm2, inactive: 1.79; under GGGAGUCUGUAGAAGGUUCTT against BC034054, inactive: -0.611.

As for GGUCAAUGAACCAUCCCACTT against Padi6, the z-score is inactive: 1.58. Under “GGUUGAUCUAAUGAUUGUGTT against 2810027O19Rik” stands inactive: -1.42; under CCUCUGUCUAAGAUCAGUUTT against Trpm2, inactive: -1.59. Under GGAAGACUUGUUCAACUGGTT against Grwd1 stands inactive: 0.0881.

With GGAAAUGUUAAGUGCCUUGTT against Mrpl53, the z-score was inactive: -1.77.

For CGAUGAAGUAUCAAUUAGATT against Usp1, the z-score was inactive: 0.891. Turning to GGGAAAGUUGGAGAGUACGTT against Hoxa1, the z-score was inactive: 0.592. The result for GCCGCUAACUAAAGUCAAATT against Aloxe3 reads inactive: 1.08; that for GAACGUGCAGCUGACAGAGTT against Ppp1ca, inactive: 1.29; that for CCUCAGGUAUCCCGCUUUATT against Stk24, inactive: 2.1. Turning to GUGAAAAAAUACAUGACCCTT against V1rc32, the z-score was inactive: 0.792. As for GGGCCAAGCAAUUUGGUAGTT against S100a14, the z-score is inactive: -0.843.

Turning to “GCAGGGCCUCUGUUUUUUATT against 1190005I06Rik”, the z-score is inactive: -0.744. On to GGUUCGAUGUCCAGUCACUTT against Ppp2ca, for which the z-score was inactive: -2.1. For the sequence “GGGAGGCAUAGUCAAAUUGTT against 4931419P11Rik”, the z-score was inactive: 1.33. As to CCGUUUCAGUCAAAUCCAUTT against Arid4b, the z-score was inactive: -0.886. The result for GGGUUUUCCAUGAUCUAUUTT against Nup188 reads inactive: -0.761. As to “CGUGUUUAGGAAAAAUUGUTT against 2510039O18Rik”, the z-score was inactive: 1.32. As for GGGAAAUGCUUCUAAAAAUTT against Pcdhb11, the z-score is inactive: 0.548.

As for GGACCAAACCUAUCAAAAATT against BC020184, the z-score was inactive: -0.0206.

Turning to GGCCAUAACGAAGGAUGAATT against Cdv3, the z-score is inactive: -1.04. CCAGCAAAAAUCGAUACUUTT against Plcg2: the z-score is inactive: -0.123. With GGCUCCACCGACUUUGUCUTT against LOC226169, the z-score is inactive: 0.446.

GCUUUUUCUGGAAACAGCUTT against Gpr89: the z-score was inactive: -0.438. The result for “GGCAUAUACACAAUUGAUATT against 2810429K17Rik” reads inactive: 0.759.

For the sequence CCAAGCAUUCGAGUAUGUUTT against Ctsj, the z-score was inactive: -0.942.

As for GCACUCUUUUGUGCCACUUTT against Adora3, the z-score is inactive: 0.447. For CGUGAAUGACGACCCUCUATT against Zfp456, the z-score was inactive: -1.68. CCUUGGAAUGCAUAGCCAATT against Sdk1: the z-score is inactive: -0.0704. Regarding GGACUCCAACCACACUAUCTT against Rab4b, the z-score was inactive: -0.047.

For the sequence “GGGAAGAAAUCCAAGAAGATT against 1600025D17Rik”, the z-score is inactive: -0.109. Take GGGAGAUGUCUUACACAUGTT against Fkbp2: the z-score is inactive: -0.967. Under GCCUGCCUUGGAAAAGUCATT against Akr1c13 stands inactive: -1.64.

For GGAACAACUCUUAUGUAUUTT against B3gat1, the z-score is inactive: 0.223. The result for GGCCACUGAUCAACUAAAGTT against Zfp110 reads inactive: 0.516. Under CCCUAAUCUGGUGAACGAUTT against Mfap5 stands inactive: -0.108.

For GGUUCACGAGCUAAGCUGUTT against Sec23b, the z-score is inactive: -0.377.

In the case of CCACUACUAGAAUCCUAAATT against Sdc3, the z-score was inactive: 1.74.

GCACUGGAAUCAAACCAUCTT against Ppp2r5b: the z-score was active: 2.45. In the case of GUCUUCUUACCCUACUGUGTT against Olfr1178, the z-score was inactive: -1.81. For GCAGAUCUCUUACGUCAUCTT against Adam9, the z-score was inactive: 0.749. As for GCAACCACUGUGGUGAUUGTT against Lincr, the z-score was inactive: 0.778. Take GGCUUUUUCUCACCAGCACTT against Sin3a: the z-score is inactive: -1.8. On to GGUGGUAAAGACGAUUGGCTT against Vil2, for which the z-score is inactive: -1.52. The result for CCAUCCUGGGACUUAUCUGTT against Olfr447 reads inactive: 0.315; that for GGAAGCCAUUGGGUUAAGCTT against Gpr141, inactive: 0.962. The result for GGACUCUACUAGGAAUAAATT against Col16a1 reads inactive: 1.31; that for GGAAUUCAGCAGUCAACUGTT against Krt1-15, inactive: 1.73; that for GCUGACCUAUUCUGAUCCATT against Chchd4, inactive: -0.557.

For GGUACAGAUUCUUGUGGACTT against Bace2, the z-score was inactive: 0.318.

For the sequence CGCGGGAUGAAGGAUAUAATT against LOC432589, the z-score is inactive: -2.23. Regarding GGUGGAGAUCAAACCAGAGTT against Rps15, the z-score was inactive: -3.39.

The values above are taken from PubChem BioAssay AID1347423 (Functional Genomics Laboratory (NCATS/FGL), 2020).
